Reference: PubChem BioAssay AID652272 (Drosophila RNAi Screening Center, 2013)
Aim: 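Finding fly genes that regulate Hedgehog signal transduction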 (primary screen). System: Drosophila clone 8 (Cl8) cells. Reagent: long dsRNA against Drosophila genes. Measurement: 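Firefly light from a Hedgehog-responsive ptc promoter reporter and Renilla reference light, both read on a plate reader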. Reading the numbers: firefly Hh reporter signal: higher = more ptc reporter light; Renilla reference signal: higher = more Renilla control light. Rule for the call: 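Called a hit if the two-replicate mean z-score lies below -2 or above +3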. Meaning of the calls: active = hit: reporter lowered or raised; inactive = not a hit.
In all, the deposit lists about 21,000 reagents; this is a random part of those with a known target gene and a result. Over the whole deposit, 503 (2.4%) got an active call. 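Raw plate light values, not normalised; calls rest on replicate z-scores that were not deposited; hits include reporter decreases as well as increases.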 A plus sign joins genes that one reagent is predicted to hit. Not given: the amount of reagent, the time to read-out.

The opening 3 records, ahead of the listing:
no.	gene knocked down	DRSC id	firefly Hh reporter signal, replicate 1	firefly Hh reporter signal, replicate 2	firefly Hh reporter signal, replicate 3	Renilla reference signal, replicate 1	Renilla reference signal, replicate 2	activity call
1	CG4793	DRSC01966	97264	61943		2720	5832	inactive
2	CG7203	DRSC03026	96693	44759		2576	4500	inactive
3	hoip	DRSC03546	9339	9264		560	1234	active

Results, from the first entry:
no.	gene knocked down	DRSC id	firefly Hh reporter signal, replicate 1	firefly Hh reporter signal, replicate 2	firefly Hh reporter signal, replicate 3	Renilla reference signal, replicate 1	Renilla reference signal, replicate 2	activity call
1	CG4793	DRSC01966	97264	61943		2720	5832	inactive
2	CG7203	DRSC03026	96693	44759		2576	4500	inactive
3	hoip	DRSC03546	9339	9264		560	1234	active
4	CG31974	DRSC00522	1.17e5	96598		2548	2375	inactive
5	CG9747	DRSC16554	77392	5.63e5	95366	1836	3591	inactive
6	CG9014	DRSC01979	1.03e5	75869		2764	7145	inactive
7	CG43124	DRSC13867	59793	3.21e5		14616	7456	inactive
8	unc-119	DRSC18846	87074	2.02e5		2893	7360	inactive
9	CG3213	DRSC00576	1.71e5	66407		4291	6588	inactive
10	kek3	DRSC03553	1.25e5	6.51e5	67341	2790	36545	inactive
11	CG6283	DRSC16009	1.10e5	85985		4096	3047	inactive
12	AsnRS-m	DRSC07010	79952	53993		2387	3860	inactive
13	CR14798	DRSC17956	80455	2.60e5		1562	11096	inactive
14	Tmx3	DRSC10471	95205	70032		4528	2300	inactive
15	CG6739	DRSC02987	1.25e5	44272		2925	3764	inactive
16	Efhc1.1	DRSC20135	66944	2.11e5		2187	7723	inactive
17	CG32459	DRSC11852	1.10e5	1.40e5		3888	3237	inactive
18	Cubn	DRSC18256	73948	78781		2375	1540	inactive
19	IntS11	DRSC15407	1.03e5	65817		2628	2220	inactive
20	HHEX	DRSC16186	3.77e5	42672		25420	1911	inactive
21	Adgf-D	DRSC16521	55571	56804		1456	1600	inactive
22	ph-p	DRSC18820	1.21e5	3.01e5		4632	10592	inactive
23	Mipp1	DRSC11223	86023	68180		3016	2436	inactive
24	CG2124	DRSC18208	52165	1.60e5		1413	6101	inactive
25	CG6933	DRSC10751	93121	1.21e5		4024	4928	inactive
26	beat-Ic	DRSC01524	1.08e5	2.17e5		3084	9437	inactive
27	beat-Ic	DRSC03491	1.04e5	34688		3147	4035	inactive
28	Ets65A	DRSC09968	46194	31595		4699	2237	inactive
29	Ets65A	DRSC10738	51904	64535		2680	2493	inactive
30	Ets65A	DRSC11164	83586	55030		2757	2451	inactive
31	CG43110	DRSC05661	1.04e5	2.24e5		2807	9126	inactive
32	CG33791 + CG12105 + CG18170	DRSC08387	95969	1.11e5		5092	4667	inactive
33	mth	DRSC08725	1.23e5	1.05e5		5941	4184	inactive
34	Ugt49C1	DRSC04252	91685	52060		2432	4768	inactive
35	alphaTry	DRSC07577	1.04e5	75544		2609	5346	inactive
36	CG10809	DRSC09802	52256	83513	54576	8275	3409	inactive
37	aqz	DRSC16570	81863	95002		3820	3424	inactive
38	CG6793	DRSC10714	36107	56184	66390	6425	4417	inactive
39	MED23 + CG3700	DRSC04406	96666	60411		2371	4717	inactive
40	MED23 + CG3700	DRSC04407	59161	38389		2204	1584	inactive
41	glec	DRSC16958	8.12e5	1.58e5		44018	2220	inactive
42	CG3698	DRSC11749	1.20e5	87776		4988	3178	inactive
43	CG11007	DRSC06023	92699	54512		4164	2587	inactive
44	CG11168	DRSC14292	99100	86597		4186	3739	inactive
45	CG15739	DRSC19705	73576	2.34e5		2016	8893	inactive
46	spirit	DRSC18202	75092	75200		1989	2080	inactive
47	Tsf2	DRSC09751	1.35e5	71344		4561	2656	inactive
48	ATP7	DRSC19819	68320	2.43e5		2292	8258	inactive
49	Pkc53E	DRSC05636	91041	1.99e5		2465	8256	inactive
50	Pkc53E	DRSC07510	1.09e5	77979		4369	3322	inactive
51	tei	DRSC07616	1.05e5	72521		2592	3824	inactive
52	ND-18	DRSC19441	1.06e5	1.83e5		4054	7322	inactive
53	Pxd	DRSC16805	55752	1.17e5		1301	3109	inactive
54	Pcd	DRSC16785	1.20e5	88490		4150	2378	inactive
55	CG3436	DRSC00605	49223	38438		3072	2860	active
56	RhoGAP5A	DRSC18294	1.13e5	84699		2682	2180	inactive
57	inv	DRSC07633	1.38e5	75986		3453	4745	inactive
